Assay results published in PMC7652866.
Results are given in words; binding and its absence hold for the method and conditions named. Binding seen in cells or lysates may run through a third protein. Binding can be weak; no strength is given.

Chains of the proteins cited; added tags and fusions are not shown. Lines headed by an entry give the natural chain unless they say otherwise; changes in a name come on top.
UniProt P23258: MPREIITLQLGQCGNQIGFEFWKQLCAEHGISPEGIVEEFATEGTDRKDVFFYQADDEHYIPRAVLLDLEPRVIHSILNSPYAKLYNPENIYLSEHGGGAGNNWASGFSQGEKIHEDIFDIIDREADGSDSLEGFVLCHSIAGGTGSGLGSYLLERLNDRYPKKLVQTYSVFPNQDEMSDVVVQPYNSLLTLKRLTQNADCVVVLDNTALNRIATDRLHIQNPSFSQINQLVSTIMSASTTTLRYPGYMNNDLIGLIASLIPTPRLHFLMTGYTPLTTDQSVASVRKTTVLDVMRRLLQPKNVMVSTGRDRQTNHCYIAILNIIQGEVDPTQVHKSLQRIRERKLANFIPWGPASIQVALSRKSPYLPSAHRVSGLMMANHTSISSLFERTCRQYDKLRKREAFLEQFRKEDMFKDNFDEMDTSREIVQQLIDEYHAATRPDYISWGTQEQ

Biological target: γ-tubulin (human (endogenous in MRC5)) (UniProt P23258)
Test: proximity ligation; Duolink PLA Fluorescent Detection (red), anti-mouse PLUS and anti-rabbit MINUS probes, on fixed MRC5, FADS 1 and FADS 2 fibroblasts; rabbit anti-rapsyn, rabbit or mouse anti-γ-tubulin, mouse anti-NUP88; foci mean a distance of at most 40 nm; foci per cell counted

| binding | Binder |
| --- | --- |
| binds | rapsyn (receptor-associated protein of the synapse) (protein, UniProt Q13702-1 1-412) MGQDQTKQQIEKGLQLYQSNQTEKALQVWTKVLEKSSDLMGRFRVLGCLVTAHSEMGRYKEMLKFAVVQIDTARELEDADFLLESYLNLARSNEKLCEFHKTISYCKTCLGLPGTRAGAQLGGQVSLSMGNAFLGLSVFQKALESFEKALRYAHNNDDAMLECRVCCSLGSFYAQVKDYEKALFFPCKAAELVNNYGKGWSLKYRAMSQYHMAVAYRLLGRLGSAMECCEESMKIALQHGDRPLQALCLLCFADIHRSRGDLETAFPRYDSAMSIMTEIGNRLGQVQALLGVAKCWVARKALDKALDAIERAQDLAEEVGNKLSQLKLHCLSESIYRSKGLQRELRAHVVRFHECVEETELYCGLCGESIGEKNSRLQALPCSHIFHLRCLQNNGTRSCPNCRRSSMKPGFV |
| binds | rapsyn E162K mutant protein (protein, UniProt Q13702-1 1-412) MGQDQTKQQIEKGLQLYQSNQTEKALQVWTKVLEKSSDLMGRFRVLGCLVTAHSEMGRYKEMLKFAVVQIDTARELEDADFLLESYLNLARSNEKLCEFHKTISYCKTCLGLPGTRAGAQLGGQVSLSMGNAFLGLSVFQKALESFEKALRYAHNNDDAMLKCRVCCSLGSFYAQVKDYEKALFFPCKAAELVNNYGKGWSLKYRAMSQYHMAVAYRLLGRLGSAMECCEESMKIALQHGDRPLQALCLLCFADIHRSRGDLETAFPRYDSAMSIMTEIGNRLGQVQALLGVAKCWVARKALDKALDAIERAQDLAEEVGNKLSQLKLHCLSESIYRSKGLQRELRAHVVRFHECVEETELYCGLCGESIGEKNSRLQALPCSHIFHLRCLQNNGTRSCPNCRRSSMKPGFV |
